# Measured data: PubChem BioAssay AID1259254 (NCATS, 2017)
# Assay: 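Genome-wide screen for genes that prevent DNA re-replication in cancer cells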 (primary screen)
# System: human HCT116 colorectal cancer cells
# Reagent: single siRNA against human genes
# Duration: 3 days
# Measurement: 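Nuclei stained with Hoechst and imaged; cell-cycle phase assigned by DNA content; G2 share scaled per plate, non-targeting siRNA 0%, GMNN siRNA 100%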
# Scale: G2 robust z-score and G2 cells, % of GMNN control: higher = more G2 cells, more excess DNA replication; raw share of cells in G2: higher = larger share of cells with G2 DNA content
# Call rule: 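An siRNA counts as active if its G2 robust z-score lies at least 5 MADs above the screen median; here such calls match roughly 38% of GMNN control or more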
# Here is an unselected part of about 59,000 reagents. Of all reagents, about 1,550 (2.6%) are marked active. 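G2 share is only a proxy for re-replication; each gene was hit by three separate siRNAs, and active genes were retested.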 Raw values are not corrected between plates. Unmarked entries are inactive. Reagents against one gene are numbered here. The record does not give: the amount of reagent.
Target gene,reagent no.,G2 robust z-score,"G2 cells, % of GMNN control",raw share of cells in G2 (%)
AUP1 (GeneID 550),1,-0.0647,2.51,5.97
AUP1 (GeneID 550),2,-0.856,-3.05,2.85
AUP1 (GeneID 550),3,2.62,21.4,12
EPYC (GeneID 1833),1,-0.414,0.0578,4.98
EPYC (GeneID 1833),2,0.297,5.05,6.84
EPYC (GeneID 1833),3,1.33,12.3,8.33
INTS15 (GeneID 79034),1,0.391,5.72,4.21
INTS15 (GeneID 79034),2,-0.21,1.49,5.23
INTS15 (GeneID 79034),3,0.569,6.97,7.73
CORIN (GeneID 10699),1,-0.496,-0.524,5.38
CORIN (GeneID 10699),2,0.527,6.67,7.27
CORIN (GeneID 10699),3,-1.16,-5.22,1.96
SEPTIN3 (GeneID 55964),1,0.886,9.2,7.74
SEPTIN3 (GeneID 55964),2,2.56,21,13.1
SEPTIN3 (GeneID 55964),3,3.64,28.6,19
ACAT1 (GeneID 38),1,-0.728,-2.15,3.99
ACAT1 (GeneID 38),2,-1.06,-4.52,2.31
ACAT1 (GeneID 38),3,0.138,3.94,6.47
PAQR7 (GeneID 164091),1,2.85,23,14.1
PAQR7 (GeneID 164091),2,1.01,10,8.03
PAQR7 (GeneID 164091),3,0.0117,3.05,4.2
BCLAF1 (GeneID 9774),1,-0.825,-2.84,2.58
BCLAF1 (GeneID 9774),2,-0.66,-1.68,5.24
BCLAF1 (GeneID 9774),3,-0.0298,2.76,4.49
RNASE2CP (GeneID 643332),1,-0.561,-0.98,3.27
RNASE2CP (GeneID 643332),2,-0.66,-1.68,2.67
RNASE2CP (GeneID 643332),3,2.39,19.8,8.9
CAPNS2 (GeneID 84290),1,-0.39,0.223,5.69
CAPNS2 (GeneID 84290),2,-0.594,-1.21,4.08
CAPNS2 (GeneID 84290),3,1.04,10.3,8.08
STK40 (GeneID 83931),1,0.0651,3.43,4.78
STK40 (GeneID 83931),2,2.67,21.7,12.4
STK40 (GeneID 83931),3,0.341,5.37,7.14
ZNF891 (GeneID 101060200),1,3.59,28.3,14.5
ZNF891 (GeneID 101060200),2,-0.229,1.36,3.93
ZNF891 (GeneID 101060200),3,-0.456,-0.242,3.04
CLPX (GeneID 10845),1,1.12,10.9,7.14
CLPX (GeneID 10845),2,-0.794,-2.62,4.82
CLPX (GeneID 10845),3,-0.376,0.323,3.47
PCDHA6 (GeneID 56142),1,-0.711,-2.03,5.54
PCDHA6 (GeneID 56142),2,-0.737,-2.22,3.65
PCDHA6 (GeneID 56142),3,3.35,26.6,15.4
OOEP (GeneID 441161),1,1.66,14.6,8.09
OOEP (GeneID 441161),2,1.31,12.2,8.31
OOEP (GeneID 441161),3,-0.367,0.382,3.56
RCOR1 (GeneID 23186),1,6.49 (active),48.7,20.5
RCOR1 (GeneID 23186),2,-0.995,-4.03,2.81
RCOR1 (GeneID 23186),3,1.71,15,12.4
FBXO32 (GeneID 114907),1,4.13,32,16.9
FBXO32 (GeneID 114907),2,-0.366,0.393,3.45
FBXO32 (GeneID 114907),3,0.474,6.3,3.66
ADGRE5 (GeneID 976),1,0.287,4.99,7.62
ADGRE5 (GeneID 976),2,0.58,7.05,6.98
ADGRE5 (GeneID 976),3,-0.61,-1.33,2.86
MDN1 (GeneID 23195),1,0.0312,3.19,4.59
MDN1 (GeneID 23195),2,0.313,5.17,8.29
MDN1 (GeneID 23195),3,-0.142,1.96,4.16
IMPDH1 (GeneID 3614),1,-0.257,1.16,5.46
IMPDH1 (GeneID 3614),2,-0.436,-0.0996,5.65
IMPDH1 (GeneID 3614),3,-0.686,-1.86,3.52
GTF3C1 (GeneID 2975),1,-1.18,-5.35,2.79
GTF3C1 (GeneID 2975),2,-0.236,1.31,4.57
GTF3C1 (GeneID 2975),3,0.299,5.07,5.51
TFG (GeneID 10342),1,-0.37,0.364,5.5
TFG (GeneID 10342),2,-0.0204,2.82,5.12
TFG (GeneID 10342),3,-0.561,-0.981,3.05
IL24 (GeneID 11009),1,-1.01,-4.14,3.89
IL24 (GeneID 11009),2,-0.124,2.1,4.52
IL24 (GeneID 11009),3,-1.08,-4.61,4.66

In a second layout: 8 of the entries above
| Target gene | reagent no. | G2 robust z-score | G2 cells, % of GMNN control | raw share of cells in G2 (%) |
| --- | --- | --- | --- | --- |
| CLPX (GeneID 10845) | 2 | -0.794 | -2.62 | 4.82 |
| CLPX (GeneID 10845) | 3 | -0.376 | 0.323 | 3.47 |
| PCDHA6 (GeneID 56142) | 1 | -0.711 | -2.03 | 5.54 |
| PCDHA6 (GeneID 56142) | 2 | -0.737 | -2.22 | 3.65 |
| PCDHA6 (GeneID 56142) | 3 | 3.35 | 26.6 | 15.4 |
| OOEP (GeneID 441161) | 1 | 1.66 | 14.6 | 8.09 |
| OOEP (GeneID 441161) | 2 | 1.31 | 12.2 | 8.31 |
| OOEP (GeneID 441161) | 3 | -0.367 | 0.382 | 3.56 |
